The values below come from paper PMC2992532, “A tryptophan-rich peptide acts as a transcription activation domain” (BMC Molecular Biology, 2010).

No constants are given. Whether binding was seen depends on the method and setting. Some binding calls cover weakened binding; strength is not graded here. Where a sequence is shown, tags or fusion partners need not be part of it.

Assay [1] addresses T1, LexA-TFIIB fusion protein (UniProt P29055 1-345).
T1 sequence (looked up): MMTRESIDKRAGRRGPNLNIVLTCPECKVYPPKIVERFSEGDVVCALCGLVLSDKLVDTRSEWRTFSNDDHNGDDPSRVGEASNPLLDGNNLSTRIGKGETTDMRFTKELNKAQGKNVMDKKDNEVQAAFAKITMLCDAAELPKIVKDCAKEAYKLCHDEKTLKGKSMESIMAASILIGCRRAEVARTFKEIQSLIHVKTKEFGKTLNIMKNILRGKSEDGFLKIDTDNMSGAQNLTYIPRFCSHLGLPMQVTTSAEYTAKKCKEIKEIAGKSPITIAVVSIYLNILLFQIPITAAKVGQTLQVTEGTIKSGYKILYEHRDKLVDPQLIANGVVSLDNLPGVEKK
The experiment in a line: two-hybrid; LexA-based yeast two-hybrid in strain EGY48; bait as LexA fusion in pGilda, prey B42-W7; reporter genes LEU2 and lacZ.

The target in the next assay is T2, LexA-TBP fusion protein (UniProt P13393).
T2 sequence: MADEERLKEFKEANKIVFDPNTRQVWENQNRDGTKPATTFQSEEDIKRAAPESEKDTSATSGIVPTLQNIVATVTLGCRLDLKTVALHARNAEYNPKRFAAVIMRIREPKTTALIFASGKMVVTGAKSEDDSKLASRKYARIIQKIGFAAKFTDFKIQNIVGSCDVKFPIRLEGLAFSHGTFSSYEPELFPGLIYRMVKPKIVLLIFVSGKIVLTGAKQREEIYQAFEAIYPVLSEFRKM
Described as above.

As to WWWWWWW [B42-W7 fusion protein (heptatryptophan, W7)], the binding entry in assay [1] is “binds”; with LexA-TBP fusion protein, “no binding”.
